Most values lie at the floor of the assay. Slopes are relative: functional sequences can read slightly below zero.
What follows are substances tested on Saccharomyces cerevisiae PS128 hsf1 delta, HSF1(1-493) fusion (assay: growth estimate (transactivation domain function in HSF1 fusion, heat-shock survival) (a.u. (slope of normalised read count over time)); higher = stronger growth at 37°C, i.e. more transactivation activity). Conditions: library: random library.

Row | Substance | growth estimate
1 | MVCSIVHWSTYVCTEVALES | < -0.25
2 | GQLFLWGMEWSW | < -0.25
3 | TRMI | < -0.25
4 | DDHHCVMTTPI | < -0.25
5 | TGYGKGSLDGP | < -0.25
6 | RSDLPGGELNARHLIGPSLA | -0.246
7 | PEVITYVVSRAPE | < -0.25
8 | CGVRYRQ | < -0.25
9 | WAGVERSMLEGRGGLSS | < -0.25
10 | LDGCPVSTAEGVSAKLPSCS | < -0.25
11 | PWWEVVGNGSCSEGRSNGSA | < -0.25
12 | VRSCILQV | < -0.25
13 | VEEARSLGRVAVGRVRLQPA | < -0.25
14 | LCNPLIVVSNIPGDGRAIRV | < -0.25
15 | IQLVIWHIPSAVQRRGRPTP | < -0.25
16 | PRDKGNTSPMVVRGAIRHTG | < -0.25
17 | QEVFISRVSKA | < -0.25
18 | RSDLLCIRNGKYAQVKKPGS | < -0.25
19 | YRGECILGHYAVNCRASGQE | < -0.25
20 | DESLRIVAGRSLAGAICATT | < -0.25
21 | YLRIAL | < -0.25
22 | YGHSQASAYKLHLSDLAELT | < -0.25
23 | DLRTFVLTAILFGRCGRSHA | < -0.25
24 | SQRSVCALIKLLTADAKSME | < -0.25
25 | SLLGFLHSLFSLL | < -0.25
26 | WPIICDSKVN | < -0.25

Copied from the results shown for reference:
Row | Substance | growth estimate
6 | RSDLPGGELNARHLIGPSLA | -0.246
7 | PEVITYVVSRAPE | < -0.25
8 | CGVRYRQ | < -0.25
9 | WAGVERSMLEGRGGLSS | < -0.25
10 | LDGCPVSTAEGVSAKLPSCS | < -0.25

A different layout for part of the listing above:
Row	Substance	growth estimate
4	DDHHCVMTTPI	< -0.25
15	IQLVIWHIPSAVQRRGRPTP	< -0.25
21	YLRIAL	< -0.25
23	DLRTFVLTAILFGRCGRSHA	< -0.25
26	WPIICDSKVN	< -0.25

Following part

Row | Substance | growth estimate
27 | PEYIPVNAKAAFS | < -0.25
28 | AWDYRGCMGWACPV | < -0.25
29 | APTRTAGKFRCGYWG | < -0.25
30 | GLTRPLYQYLV | < -0.25
31 | RSRLVIGCSAVGSTCTTWNH | < -0.25
32 | DLLLLCAEGTPELLTRRQPQ | < -0.25
33 | DPRSVDVWKELNDNMAVTDI | < -0.25
34 | VTSLVD | -0.115
35 | LSSVHN | < -0.25
36 | GTLV | < -0.25
37 | HQLLIGRRRGWSSYSNVSTS | < -0.25
38 | YGSKADDACQQHFVQRRMSK | < -0.25
39 | IFCICR | < -0.25
40 | VAVQSTRHPAGAD | < -0.25
41 | TYHFTCLFWALESEMSVEML | < -0.25
42 | GDYFGA | < -0.25
43 | LLLEMRSSTLPS | < -0.25
44 | MRRLAHEVARRMNRSVAQLR | < -0.25
45 | CLLVGFLSSSTDFGLLESGR | < -0.25
46 | VPSSRVQ | < -0.25
47 | AKTA | < -0.25
48 | RRIVSVAATRGWAMLGPSRI | < -0.25
49 | RLTAAAGNRSTPFE | < -0.25
50 | RVDLSDCWVTHFRGVVRNRM | < -0.25
51 | GLGHWTLWAVGDRLCRC | < -0.25
52 | GQVIRTRPSPRDLSRIRDIG | < -0.25

Row | Substance | growth estimate
53 | SLLPTQ | < -0.25
54 | SWVLPFWGYFLGSLAPDPFL | < -0.25
55 | CRPTAQSRKSSFWLADHICN | < -0.25
56 | SGSQRDRSSI | < -0.25
57 | SHRPNPVWYDTCAQLLRHFV | < -0.25
58 | LTGICNLGKQWLRF | < -0.25
59 | RELWELDCAVNPGPLPLKRR | < -0.25
60 | DGTGGSNPGLTLYKKVYTST | < -0.25
61 | PGGFAFPRLNLRSLKYHYVV | < -0.25
62 | RHPCRTLR | < -0.25
63 | CGARIRMYRSGPKEMRTGVI | < -0.25
64 | SWTLSTWTEDIALGRYIACR | < -0.25
65 | ARMSYASAPKRCEPAGVDLC | < -0.25
66 | YTKPPQLFLSELMPVGRELL | < -0.25
67 | QNRRECNLGFKFCAEVHDTR | < -0.25
68 | LAYWAGHGASGFWGVVAWSC | < -0.25
69 | CLCTSLCGHELFRSGTCQER | < -0.25
70 | LDIPYYSISSDYFRRAEQGR | < -0.25
71 | CVLRV | -0.243
72 | VMGGIVPAGCGLFDRGMQ | < -0.25
73 | RFVCLSILRELDCSMCSRAM | < -0.25
74 | GGSVNTFHRQCKI | < -0.25
75 | SIVFTDF | < -0.25
76 | FVVRVVLAVRRDYSAGPARK | < -0.25
77 | GLSQVWEKRSRPSARAR | < -0.25
78 | ITHGAAPFRIMGFNIYLQTL | < -0.25

Row | Substance | growth estimate
79 | GHLIDLKDPRRARATQKRRR | < -0.25
80 | SSGSSSFFGHLQEVSIYPDL | -0.243
81 | TKCTGVTNKTATMSLRMMAT | < -0.25
82 | ALLQGATATDGGHPA | < -0.25
83 | GWISILRGLYASFECLYT | < -0.25
84 | RRGRFFEPPECV | < -0.25
85 | SESIAEMLARLLRDRDSRFR | < -0.25
86 | RCFG | < -0.25
87 | LGLIRLAFLQ | < -0.25
88 | VTEKEVRFGRLKGVLRDRRL | < -0.25
89 | ECRQARAIYLRLVHPVVIQI | < -0.25
90 | PQPICMDQHNSREKSWVILA | < -0.25
91 | SRAWFPWYTVETMWV | < -0.25
92 | SAEWAQGGP | < -0.25
93 | AGEWQDAGLQCPVGEKDKSR | < -0.25
94 | AEMLCGALDVDHPNMSCIDP | < -0.25
95 | YGRM | < -0.25
96 | LERVT | < -0.25
97 | GRALVSETEERLSKWEIFQR | < -0.25
98 | TCDAVEIKAHCQIGLRRSTR | 0.0112
99 | EQTE | < -0.25
100 | IECVLTQMHPLGRLICGARL | < -0.25
101 | RIPGMGRLCRLRISTVMCIS | < -0.25
102 | SSFGRAAWLPFYDYLGHDDI | 0.0387
103 | PVNRSSAAYDVAAGDRRRSG | < -0.25
104 | HRVTPVIAPTDRTMEC | < -0.25

As entered above.
Under growth estimate, GGSVNTFHRQCKI has the entry < -0.25
Under growth estimate, RELWELDCAVNPGPLPLKRR has the entry < -0.25
Under growth estimate, GTLV has the entry < -0.25

Remaining list, next part

Row | Substance | growth estimate
105 | KCAKAITVGCLPGIFRALDY | < -0.25
106 | VVRIKDCEF | < -0.25
107 | ILRVFI | < -0.25
108 | IRTNRESCVMRLTRIRVR | < -0.25
109 | GLFTATCLQGHSVVCVKLTQ | < -0.25
110 | GMPERVRGVRGVDSETTRKR | < -0.25
111 | LLGPLLNNVTGSCVSTRHG | < -0.25
112 | GLISRAFTSRPNGAFYPVRL | < -0.25
113 | RLLVPGLHLWGLTYQLRSFV | < -0.25
114 | GPRTRGHREYTNSARKYWLK | < -0.25
115 | ENCGYCPAFLPRTNSLRSTL | < -0.25
116 | SSSIPGHRMWAELWLWNYEE | < -0.25
117 | FESWKS | < -0.25
118 | FHHDGITWPYITE | < -0.25
119 | SRSRGLQAPMLGCMKDRFTS | < -0.25
120 | WYAGSRYQTPLPVWRWITRA | < -0.25
121 | GMAEDGQVNATLADACALSH | < -0.25
122 | AKYWVSTQGGPQSKRNGLWM | < -0.25
123 | GSHWTTGD | < -0.25
124 | KSVD | < -0.25
125 | WFLTKFGRGAFERNRYMNGF | < -0.25
126 | DLGVSRAGIDIAVIGCNASN | < -0.25
127 | GRHVGVPLFYHVYWALHQ | < -0.25
128 | GNERDPFSLTIYT | < -0.25
129 | PLG | < -0.25
130 | PVPNSCPRGSGCAWTFSRP | < -0.25

Row | Substance | growth estimate
131 | VTGFALPPVPDMGIILGKDQ | < -0.25
132 | SGPRSLPTGVCVV | < -0.25
133 | RTSSDAFRTL | < -0.25
134 | WTQLLTGLRMLRHPRAASLA | -0.246
135 | VFTCHNELTEKDNVRKMVCL | < -0.25
136 | ASTTRSVRTLCRLDLPEWSS | < -0.25
137 | MIRKACGKRLEPRVSAVHKR | < -0.25
138 | LVKRGESKHT | < -0.25
139 | FPRDLVLYLTGLWDRTTETP | < -0.25
140 | PSASRSEDSV | < -0.25
141 | KSTGGGSGRSDYVVVNITTR | < -0.25
142 | RKMMITVMYASTASGCHSPV | < -0.25
143 | RSQAIYL | < -0.25
144 | ERYFRQVWELRGNITRR | < -0.25
145 | YTHWSRVNAG | < -0.25
146 | GCGWFHSWNPVPPDSTDRRG | < -0.25
147 | IGAPPGNRPRHPAATNMSVW | < -0.25
148 | MSLGVRRRRETGSGRSRC | < -0.25
149 | YLLTGVLTPVGRDQWESMPV | < -0.25
150 | AVIGEDT | < -0.25
151 | QTSGAVRS | < -0.25
152 | CDNLATAAYLAISIFCVIPL | < -0.25
153 | RWVSAAAVIMEMVYKYRGLA | < -0.25
154 | RLGG | < -0.25
